Measurements as given in the supplement of paper PMC8288183.
± gives the standard deviation of the averaged measurements. Some of the results follow. Repeats are few or missing, and single values can be far off.

Molecular target: T1, NSUN6 (UniProt Q8TEA1)
T1 sequence: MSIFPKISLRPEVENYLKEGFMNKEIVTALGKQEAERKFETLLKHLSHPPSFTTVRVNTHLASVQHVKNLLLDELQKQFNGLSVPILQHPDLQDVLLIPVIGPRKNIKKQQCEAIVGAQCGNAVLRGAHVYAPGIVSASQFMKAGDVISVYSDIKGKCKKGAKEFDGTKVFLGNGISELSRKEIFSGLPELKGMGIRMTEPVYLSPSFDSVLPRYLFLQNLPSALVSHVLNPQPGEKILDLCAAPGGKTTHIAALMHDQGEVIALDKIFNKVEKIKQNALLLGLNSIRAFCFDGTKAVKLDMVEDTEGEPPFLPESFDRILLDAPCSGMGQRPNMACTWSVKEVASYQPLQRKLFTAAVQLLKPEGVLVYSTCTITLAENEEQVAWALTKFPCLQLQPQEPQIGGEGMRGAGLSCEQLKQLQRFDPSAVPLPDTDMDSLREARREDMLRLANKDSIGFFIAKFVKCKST
Assay: m5C methylation level at the target C (C/(C+U) bisulfite reads) (fraction); higher = more methylation by NSUN6; extreme values may be limits of the assay
Settings: HEK293T (wild-type)
Description: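 High-throughput mutagenesis reporter. About 140 bp oligo-pool variants of four natural Type II m5C substrates (substrate #1 chr15:91425541; #2 RAB15 3'UTR chr14:65413377; #3 SULT2A1 5'UTR chr19:48389569; #4 NAAA CDS chr4:76857361) were cloned as 3'UTR elements of psiCHECK-2 luciferase and transfected into wild-type HEK293T cells. Total RNA was taken 48 h later and m5C level was measured by targeted bisulfite sequencing as C/(C+U) reads at the m5C site (one library).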

[1] = parent substrate: substrate #1 (main figure)

| Sequence | m5C methylation level at the target C [1] | m5C methylation level at the target C (parent substrate: substrate #2) | m5C methylation level at the target C (parent substrate: substrate #3) | m5C methylation level at the target C (parent substrate: substrate #4) |
| --- | --- | --- | --- | --- |
| UCUUUA | 0.00285 | 0.00288 | 0 | 0.00102 |
| GCCUUU | 0.00197 | 0 | 0.0101 | 0.000557 |
| GCGGCU | 0 | 0.00171 | 0 | 0.00109 |
| ACGGAU | 0.00238 | 0.00121 | 0.00127 | 0 |
| GCACGA | 0.000862 | 0 | 0.00133 | 0 |
| CCCGAC | 0.000598 | 0.00371 | 0.000678 | 0 |
| ACAUUU | 0.00764 | 0 | 0 | 0.00716 |
| ACCGUA | 0.00178 | 0 | 0.00138 | 0.00176 |
| UCUUAA | 0.000547 | 0 | 0.00492 | 0.00134 |
| ACUGAC | 0.00131 | 0.00112 | 0 | 0.00374 |
| GCCCCA | 0.000512 | 0.0126 | 0.00796 | 0.00282 |
| ACCGUC | 0 | 0.00551 | 0.0053 | 0 |
| UCCAGA | 0.00241 | 0.00186 | 0.00103 | 0.00207 |
| GCGAUA | 0.00372 | 0 | 0.000404 | 0.001 |
| UCCCGU | 0.00354 | 0 | 0.000497 | 0.000975 |
| UCUGUU | 0.00161 | 0.00103 | 0 | 0.000433 |
| CCUCCA | 0.477 | 0.227 | 0.476 ± 0.0065 | 0.561 |
| UCCACG | 0.000858 | 0.00131 | 0.000469 | 0 |
